The values that follow come from publication PMC5640240.

Chains of the proteins cited; added tags and fusions are not shown.
UniProt P61244: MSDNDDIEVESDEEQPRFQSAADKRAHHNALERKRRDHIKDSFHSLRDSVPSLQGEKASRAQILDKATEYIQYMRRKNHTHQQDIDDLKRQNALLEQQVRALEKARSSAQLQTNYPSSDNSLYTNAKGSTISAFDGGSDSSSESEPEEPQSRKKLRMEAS
UniProt Q52LR7: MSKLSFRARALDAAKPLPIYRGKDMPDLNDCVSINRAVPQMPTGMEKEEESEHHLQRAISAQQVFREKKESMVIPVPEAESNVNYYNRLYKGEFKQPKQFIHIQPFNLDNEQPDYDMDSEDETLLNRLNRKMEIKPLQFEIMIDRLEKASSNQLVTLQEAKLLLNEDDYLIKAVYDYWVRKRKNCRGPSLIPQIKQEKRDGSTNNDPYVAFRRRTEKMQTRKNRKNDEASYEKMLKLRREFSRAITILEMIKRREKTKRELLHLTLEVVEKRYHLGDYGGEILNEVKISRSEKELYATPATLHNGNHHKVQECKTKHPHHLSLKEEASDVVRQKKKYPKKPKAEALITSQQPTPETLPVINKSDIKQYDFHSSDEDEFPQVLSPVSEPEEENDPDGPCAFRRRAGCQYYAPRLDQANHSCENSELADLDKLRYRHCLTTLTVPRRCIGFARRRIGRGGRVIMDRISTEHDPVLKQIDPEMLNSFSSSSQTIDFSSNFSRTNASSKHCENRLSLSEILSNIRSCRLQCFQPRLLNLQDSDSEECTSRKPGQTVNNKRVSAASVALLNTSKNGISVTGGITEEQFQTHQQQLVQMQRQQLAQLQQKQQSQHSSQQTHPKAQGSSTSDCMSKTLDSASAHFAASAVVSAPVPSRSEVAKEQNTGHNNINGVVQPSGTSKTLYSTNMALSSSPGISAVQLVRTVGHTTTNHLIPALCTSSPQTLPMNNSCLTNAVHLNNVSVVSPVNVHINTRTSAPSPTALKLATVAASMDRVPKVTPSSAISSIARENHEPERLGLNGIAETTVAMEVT
UniProt Q15014: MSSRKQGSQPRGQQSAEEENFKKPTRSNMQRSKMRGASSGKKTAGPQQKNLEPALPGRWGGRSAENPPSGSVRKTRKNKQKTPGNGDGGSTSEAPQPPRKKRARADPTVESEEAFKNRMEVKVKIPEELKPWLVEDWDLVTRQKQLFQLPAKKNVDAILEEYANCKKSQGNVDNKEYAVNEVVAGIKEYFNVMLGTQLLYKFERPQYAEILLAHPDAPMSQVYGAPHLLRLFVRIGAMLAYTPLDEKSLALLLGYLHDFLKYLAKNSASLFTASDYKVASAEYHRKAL

Common to all, as to test: affinity purification with mass spectrometry
The target of test [1] is EP400 (human (endogenous in MKL-1)) (UniProt Q96L91).
For test [2], the target named is MAX (human (endogenous in MKL-1 and the other cell lines)) (UniProt P61244).
Test [3] concerns the target Merkel cell polyomavirus large T antigen, truncated form (Merkel cell polyomavirus).
In test [4] the target is MAX (human (endogenous in MKL-1 and the other cell lines)) (UniProt P61244). This is another data set of the same source.

Like-named read-outs stand apart in the source and are kept apart here. These are yes or no findings as the source states them, for the method shown. In cells and extracts the contact can be indirect. Here binding means that the protein was enriched with, or labelled near, the bait; the list need not be complete. For some assays here: Where a sequence is shown, tags or fusion partners need not be part of it.

On to MORF4L1 (from UniProt Q9UBU8 1-362), for which the binding result in test [1] is recorded as “binds”.

As for ING3 (from UniProt Q9NXR8 1-418), the binding result in test [1] was “binds”.

EPC1 (from UniProt Q9H2F5 1-836): in test [1], the binding entry was “binds”.

Regarding TRRAP (from UniProt Q9Y4A5 1-3859), in test [1], the binding entry is given as “binds”.

On to EPC2 (from UniProt Q52LR7 1-807), for which the binding result in test [1] and in test [2] was “binds” each time.

KAT5 (from UniProt Q92993 1-513): the binding result in test [1] is on record as “binds”.

With MORFL2 (from UniProt Q15014 1-288), the binding entry in test [1] and in test [2] was “binds” in each case.

As for YEATS4 (from UniProt O95619 1-227), the binding entry in test [1] was “binds”.

In the case of BRD8 (from UniProt Q9H0E9 1-1235), the binding result in test [1] is given as “binds”.

On to DMAP1 (from UniProt Q9NPF5 1-467), for which the binding entry in test [1] was “binds”.

As to ACTL6A (from UniProt O96019 1-429), the binding result in test [1] is “binds”.

Regarding MBTD1 (from UniProt Q05BQ5 1-628), in test [1], the binding entry is “binds”.

B1: RB1 (protein, UniProt P06400 1-928)
chain: MPPKTPRKTAATAAAAAAEPPAPPPPPPPEEDPEQDSGPEDLPLVRLEFEETEEPDFTALCQKLKIPDHVRERAWLTWEKVSSVDGVLGGYIQKKKELWGICIFIAAVDLDEMSFTFTELQKNIEISVHKFFNLLKEIDTSTKVDNAMSRLLKKYDVLFALFSKLERTCELIYLTQPSSSISTEINSALVLKVSWITFLLAKGEVLQMEDDLVISFQLMLCVLDYFIKLSPPMLLKEPYKTAVIPINGSPRTPRRGQNRSARIAKQLENDTRIIEVLCKEHECNIDEVKNVYFKNFIPFMNSLGLVTSNGLPEVENLSKRYEEIYLKNKDLDARLFLDHDKTLQTDSIDSFETQRTPRKSNLDEEVNVIPPHTPVRTVMNTIQQLMMILNSASDQPSENLISYFNNCTVNPKESILKRVKDIGYIFKEKFAKAVGQGCVEIGSQRYKLGVRLYYRVMESMLKSEEERLSIQNFSKLLNDNIFHMSLLACALEVVMATYSRSTSQNLDSGTDLSFPWILNVLNLKAFDFYKVIESFIKAEGNLTREMIKHLERCEHRIMESLAWLSDSPLFDLIKQSKDREGPTDHLESACPLNLPLQNNHTAADMYLSPVRSPKKKGSTTRVNSTANAETQATSAFQTQKPLKSTSLSLFYKKVYRLAYLRLNTLCERLLSEHPELEHIIWTLFQHTLQNEYELMRDRHLDQIMMCSMYGICKVKNIDLKFKIIVTAYKDLPHAVQETFKRVLIKEEEYDSIIVFYNSVFMQRLKTNILQYASTRPPTLSPIPHIPRSPYKFPSSPLRIPGGNIYISPLKSPYKISEGLPTPTKMTPRSRILVSIGESFGTSEKFQKINQMVCNSDRVLKRSAEGSNPPKPLKKLRFDIEGSDEADGSKHLPGESKFQQKLAEMTSTRTRMQKQKMNDSMDTSNKEEK
Take B1: the binding entry in test [3] is reported as “binds”.

B2: VPS39 (protein, UniProt Q96JC1 1-886)
chain: MHDAFEPVPILEKLPLQIDCLAAWEEWLLVGTKQGHLLLYRIRKDVVPADVASPESGSCNRFEVTLEKSNKNFSKKIQQIHVVSQFKILVSLLENNIYVHDLLTFQQITTVSKAKGASLFTCDLQHTETGEEVLRMCVAVKKKLQLYFWKDREFHELQGDFSVPDVPKSMAWCENSICVGFKRDYYLIRVDGKGSIKELFPTGKQLEPLVAPLADGKVAVGQDDLTVVLNEEGICTQKCALNWTDIPVAMEHQPPYIIAVLPRYVEIRTFEPRLLVQSIELQRPRFITSGGSNIIYVASNHFVWRLIPVPMATQIQQLLQDKQFELALQLAEMKDDSDSEKQQQIHHIKNLYAFNLFCQKRFDESMQVFAKLGTDPTHVMGLYPDLLPTDYRKQLQYPNPLPVLSGAELEKAHLALIDYLTQKRSQLVKKLNDSDHQSSTSPLMEGTPTIKSKKKLLQIIDTTLLKCYLHTNVALVAPLLRLENNHCHIEESEHVLKKAHKYSELIILYEKKGLHEKALQVLVDQSKKANSPLKGHERTVQYLQHLGTENLHLIFSYSVWVLRDFPEDGLKIFTEDLPEVESLPRDRVLGFLIENFKGLAIPYLEHIIHVWEETGSRFHNCLIQLYCEKVQGLMKEYLLSFPAGKTPVPAGEEEGELGEYRQKLLMFLEISSYYDPGRLICDFPFDGLLEERALLLGRMGKHEQALFIYVHILKDTRMAEEYCHKHYDRNKDGNKDVYLSLLRMYLSPPSIHCLGPIKLELLEPKANLQAALQVLELHHSKLDTTKALNLLPANTQINDIRIFLEKVLEENAQKKRFNQVLKNLLHAEFLRVQEERILHQQVKCIITEEKVCMVCKKKIGNSAFARYPNGVVVHYFCSKEVNPADT
Take B2: the binding entry in test [3] is “binds”.

B3: MYCL (protein, UniProt P12524 1-364)
chain: MDYDSYQHYFYDYDCGEDFYRSTAPSEDIWKKFELVPSPPTSPPWGLGPGAGDPAPGIGPPEPWPGGCTGDEAESRGHSKGWGRNYASIIRRDCMWSGFSARERLERAVSDRLAPGAPRGNPPKASAAPDCTPSLEAGNPAPAAPCPLGEPKTQACSGSESPSDSENEEIDVVTVEKRQSLGIRKPVTITVRADPLDPCMKHFHISIHQQQHNYAARFPPESCSQEEASERGPQEEVLERDAAGEKEDEEDEEIVSPPPVESEAAQSCHPKPVSSDTEDVTKRKNHNFLERKRRNDLRSRFLALRDQVPTLASCSKAPKVVILSKALEYLQALVGAEKRMATEKRQLRCRQQQLQKRIAYLTGY
With B3, the binding result in test [4] was “binds”.
